# In the supplement of paper PMC8728848:
# The other results are listed elsewhere or left out.
# Assays:
# Assay in all cases: glycan array binding signal (z-score within array); higher = stronger binding
# Conditions in all cases: glycan notation: IUPAC condensed, linker removed
# [1] = biological target: GalNAc(b1-3)GalNAc
# How it was run: (§1)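 Glycan array binding is given as a within-array Z-score, which can be read as non-binding when negative. The arrays, 3228 of them, came from the Consortium for Functional Glycomics database and were retained only where the protein sequence was available. Z-scores were averaged across arrays of the same protein sequence at different concentrations or buffers and across linkers.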
# [2] = biological target: GalNAc(b1-4)GlcNAc
# How it was run: as §1
# [3] = biological target: Glc(a1-4)Glc
# How it was run: as §1
# [4] = biological target: Glc(a1-6)Glc(a1-6)Glc
# How it was run: as §1
# [5] = biological target: Glc(b1-4)Glc
# How it was run: as §1
# [6] = biological target: Glc(b1-6)Glc
# How it was run: as §1
# [7] = biological target: GlcA(b1-3)Gal
# How it was run: as §1
# [8] = biological target: GlcA(b1-3)GlcNAc
# How it was run: as §1
# [9] = biological target: GlcA(b1-6)Gal
# How it was run: as §1
# [10] = biological target: GlcNAc(a1-3)Gal(b1-4)GlcNAc
# How it was run: as §1
# [11] = biological target: GlcNAc(a1-6)Gal(b1-4)GlcNAc
# How it was run: as §1
# [12] = biological target: GlcNAc(b1-2)Gal(b1-3)GalNAc
# How it was run: as §1
# [13] = biological target: GlcNAc(b1-2)Man(a1-3)[GlcNAc(b1-2)Man(a1-6)]Man(b1-4)GlcNAc(b1-4)GlcNAc
# How it was run: as §1
# [14] = biological target: GlcNAc(b1-3)Gal
# How it was run: as §1
# [15] = biological target: GlcNAc(b1-3)Gal(b1-3)GalNAc
# How it was run: as §1
# [16] = biological target: GlcNAc(b1-3)Gal(b1-4)Glc
# How it was run: as §1
# [17] = biological target: GlcNAc(b1-3)Gal(b1-4)GlcNAc
# How it was run: as §1
# [18] = biological target: GlcNAc(b1-3)Gal(b1-4)GlcNAc(b1-3)Gal(b1-4)GlcNAc
# How it was run: as §1
# [19] = biological target: GlcNAc(b1-3)GalNAc
# How it was run: as §1
# [20] = biological target: GlcNAc(b1-3)Man
# How it was run: as §1
# [21] = biological target: GlcNAc(b1-3)[GlcNAc(b1-4)][GlcNAc(b1-6)]GlcNAc
# How it was run: as §1
# [22] = biological target: GlcNAc(b1-3)[GlcNAc(b1-6)]Gal(b1-4)GlcNAc
# How it was run: as §1
# [23] = biological target: GlcNAc(b1-3)[GlcNAc(b1-6)]GalNAc
# How it was run: as §1
# [24] = biological target: GlcNAc(b1-4)Gal(b1-4)GlcNAc
# How it was run: as §1
# [25] = biological target: GlcNAc(b1-4)GlcNAc
# How it was run: as §1
# [26] = biological target: GlcNAc(b1-4)GlcNAc(b1-4)GlcNAc
# How it was run: as §1
# [27] = biological target: GlcNAc(b1-4)GlcNAc(b1-4)GlcNAc(b1-4)GlcNAc(b1-4)GlcNAc
# How it was run: as §1
# [28] = biological target: GlcNAc(b1-4)GlcNAc(b1-4)GlcNAc(b1-4)GlcNAc(b1-4)GlcNAc(b1-4)GlcNAc
# How it was run: as §1
# [29] = biological target: GlcNAc(b1-4)[GlcNAc(b1-6)]GalNAc
# How it was run: as §1
# [30] = biological target: GlcNAc(b1-6)Gal(b1-4)GlcNAc
# How it was run: as §1
# [31] = biological target: GlcNAc(b1-6)GalNAc
# How it was run: as §1
# [32] = biological target: GlcNAc3Prop(b1-4)GlcNAc
# How it was run: as §1
# [33] = biological target: Kdn(a2-3)Gal(b1-3)GlcNAc
# How it was run: as §1
# [34] = biological target: Kdn(a2-3)Gal(b1-4)GlcNAc
# How it was run: as §1
# [35] = biological target: Man(a1-2)Man(a1-2)Man(a1-3)Man
# How it was run: as §1
# [36] = biological target: Man(a1-2)Man(a1-2)Man(a1-6)[Man(a1-3)]Man
# How it was run: as §1
# [37] = biological target: Man(a1-2)Man(a1-3)Man
# How it was run: as §1
# [38] = biological target: Man(a1-2)Man(a1-3)[Man(a1-2)Man(a1-6)]Man
# How it was run: as §1
# [39] = biological target: Man(a1-2)Man(a1-3)[Man(a1-2)Man(a1-6)]Man(a1-6)[Man(a1-2)Man(a1-2)Man(a1-3)]Man
# How it was run: as §1
# [40] = biological target: Man(a1-2)Man(a1-3)[Man(a1-2)Man(a1-6)]Man(a1-6)[Man(a1-2)Man(a1-2)Man(a1-3)]Man(b1-4)GlcNAc(b1-4)GlcNAc
# How it was run: as §1
# [41] = biological target: Man(a1-2)Man(a1-3)[Man(a1-6)]Man(a1-6)[Man(a1-2)Man(a1-3)]Man(b1-4)GlcNAc(b1-4)GlcNAc
# How it was run: as §1
# [42] = biological target: Man(a1-2)Man(a1-6)[Man(a1-3)]Man(a1-6)[Man(a1-2)Man(a1-2)Man(a1-3)]Man
# How it was run: as §1
# [43] = biological target: Man(a1-2)Man(a1-6)[Man(a1-3)]Man(a1-6)[Man(a1-2)Man(a1-2)Man(a1-3)]Man(b1-4)GlcNAc(b1-4)GlcNAc
# How it was run: as §1
# [44] = biological target: Man(a1-3)[Man(a1-6)]Man
# How it was run: as §1
# [45] = biological target: Man(a1-3)[Man(a1-6)]Man(a1-6)[Man(a1-2)Man(a1-3)]Man(b1-4)GlcNAc(b1-4)GlcNAc
# How it was run: as §1
binder,measurement,setting,value
"CLC (Homo sapiens), Q9UBD9 (protein) MDLRAGDSWGMLACLCTVLWHLPAVPALNRTGDPGPGPSIQKTYDLTRYLEHQLRSLAGTYLNYLGPPFNEPDFNPPRLGAETLPRATVDLEVWRSLNDKLRLTQNYEAYSHLLCYLRGLNRQAATAELRRSLAHFCTSLQGLLGSIAGVMAALGYPLPQPLPGTEPTWTPGPAHSDFLQKMDDFWLLKELQTWLWRSAKDFNRLKKKMQPPAAAVTLHLGAHGF",glycan array binding signal (z-score),[1],-0.626
same,glycan array binding signal (z-score),[2],-0.792
same,glycan array binding signal (z-score),[3],-0.44
same,glycan array binding signal (z-score),[4],-0.369
same,glycan array binding signal (z-score),[5],0.137
same,glycan array binding signal (z-score),[6],-0.076
same,glycan array binding signal (z-score),[7],-0.73
same,glycan array binding signal (z-score),[8],0.215
same,glycan array binding signal (z-score),[9],0.323
same,glycan array binding signal (z-score),[10],-0.142
same,glycan array binding signal (z-score),[11],-0.417
same,glycan array binding signal (z-score),[12],-0.911
same,glycan array binding signal (z-score),[13],-0.797
same,glycan array binding signal (z-score),[14],0.667
same,glycan array binding signal (z-score),[15],-0.301
same,glycan array binding signal (z-score),[16],0.24
same,glycan array binding signal (z-score),[17],0.314
same,glycan array binding signal (z-score),[18],-0.93
same,glycan array binding signal (z-score),[19],-0.653
same,glycan array binding signal (z-score),[20],-0.485
same,glycan array binding signal (z-score),[21],0.341
same,glycan array binding signal (z-score),[22],2.01
same,glycan array binding signal (z-score),[23],0.535
same,glycan array binding signal (z-score),[24],-0.918
same,glycan array binding signal (z-score),[25],0.598
same,glycan array binding signal (z-score),[26],-0.403
same,glycan array binding signal (z-score),[27],1.02
same,glycan array binding signal (z-score),[28],-0.685
same,glycan array binding signal (z-score),[29],-0.555
same,glycan array binding signal (z-score),[30],-0.283
same,glycan array binding signal (z-score),[31],-0.562
same,glycan array binding signal (z-score),[32],1.06
same,glycan array binding signal (z-score),[33],-0.192
same,glycan array binding signal (z-score),[34],1.06
same,glycan array binding signal (z-score),[35],0.263
same,glycan array binding signal (z-score),[36],0.289
same,glycan array binding signal (z-score),[37],-0.005
same,glycan array binding signal (z-score),[38],0.606
same,glycan array binding signal (z-score),[39],-0.894
same,glycan array binding signal (z-score),[40],0.814
same,glycan array binding signal (z-score),[41],-0.127
same,glycan array binding signal (z-score),[42],-0.995
same,glycan array binding signal (z-score),[43],0.225
same,glycan array binding signal (z-score),[44],-0.677
same,glycan array binding signal (z-score),[45],0.311

# Quoted at random: three entries already listed, in no set order.
binder,measurement,setting,value
"CLC (Homo sapiens), Q9UBD9 (protein) MDLRAGDSWGMLACLCTVLWHLPAVPALNRTGDPGPGPSIQKTYDLTRYLEHQLRSLAGTYLNYLGPPFNEPDFNPPRLGAETLPRATVDLEVWRSLNDKLRLTQNYEAYSHLLCYLRGLNRQAATAELRRSLAHFCTSLQGLLGSIAGVMAALGYPLPQPLPGTEPTWTPGPAHSDFLQKMDDFWLLKELQTWLWRSAKDFNRLKKKMQPPAAAVTLHLGAHGF",glycan array binding signal (z-score),[6],-0.076
same,glycan array binding signal (z-score),[43],0.225
same,glycan array binding signal (z-score),[24],-0.918
